Results taken from PMC6753162, “The interactome of 2-Cys peroxiredoxins in Plasmodium falciparum” (Scientific Reports, 2019).
Results are given in words; binding and its absence hold for the method and conditions named. Some results given as binding are weak or reduced against the parent protein; the word gives no strength.

The chains behind the UniProt entries cited, without tags or fusion partners.
UniProt Q27743: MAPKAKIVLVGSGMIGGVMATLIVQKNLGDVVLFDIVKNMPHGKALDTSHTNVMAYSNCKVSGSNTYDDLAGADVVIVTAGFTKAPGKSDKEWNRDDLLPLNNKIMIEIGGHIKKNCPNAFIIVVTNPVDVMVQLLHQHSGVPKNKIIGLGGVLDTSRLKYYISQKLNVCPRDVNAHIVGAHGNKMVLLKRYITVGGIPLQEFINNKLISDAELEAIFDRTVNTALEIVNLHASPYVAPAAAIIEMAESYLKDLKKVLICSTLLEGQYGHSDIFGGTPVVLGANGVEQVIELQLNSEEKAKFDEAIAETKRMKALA

Target: T1, PfPrx1a wild type (P. falciparum) (UniProt Q8IL80)
T1 sequence: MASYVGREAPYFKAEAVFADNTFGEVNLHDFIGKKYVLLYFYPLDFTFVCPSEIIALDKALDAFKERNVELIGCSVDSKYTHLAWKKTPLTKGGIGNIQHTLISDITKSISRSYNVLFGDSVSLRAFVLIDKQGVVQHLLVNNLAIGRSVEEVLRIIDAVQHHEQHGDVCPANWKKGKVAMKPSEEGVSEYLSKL
Test: pull-down; 2 mg reduced PfPrx1a wt on CNBr-activated Sepharose 4B; 8 mg purified recombinant PfLDH wt or PfSAHH wt (not pre-reduced); extensive washing; eluted with 10 mM DTT; silver-stained 12% SDS-PAGE; both purified

- binding: binds
Substance: recombinant PfLDH wt (from UniProt Q27743 1-316) (enzyme)
